For assay [1], the target named is T1, hu-CD96 isoform 1 on HEK293T cells (human) (UniProt P40200).
T1 sequence: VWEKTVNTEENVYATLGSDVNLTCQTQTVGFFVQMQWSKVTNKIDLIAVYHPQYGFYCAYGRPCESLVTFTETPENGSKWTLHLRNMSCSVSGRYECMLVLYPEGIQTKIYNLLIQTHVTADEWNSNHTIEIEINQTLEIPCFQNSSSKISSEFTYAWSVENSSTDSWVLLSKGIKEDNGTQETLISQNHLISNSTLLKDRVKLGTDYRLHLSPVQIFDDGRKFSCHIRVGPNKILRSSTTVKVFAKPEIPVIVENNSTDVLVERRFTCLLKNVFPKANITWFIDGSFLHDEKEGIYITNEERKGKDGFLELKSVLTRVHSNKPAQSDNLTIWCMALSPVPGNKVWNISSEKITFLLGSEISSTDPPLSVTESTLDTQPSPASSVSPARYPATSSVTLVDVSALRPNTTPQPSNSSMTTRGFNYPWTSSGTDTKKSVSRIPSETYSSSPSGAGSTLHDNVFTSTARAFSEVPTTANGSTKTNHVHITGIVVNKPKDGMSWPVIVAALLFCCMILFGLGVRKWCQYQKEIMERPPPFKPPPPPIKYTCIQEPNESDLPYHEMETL
In words: FACS.

Assay [2] concerns the target T2, hu-CD96 isoform 2 on CHO cells (human) (UniProt P40200).
T2 sequence: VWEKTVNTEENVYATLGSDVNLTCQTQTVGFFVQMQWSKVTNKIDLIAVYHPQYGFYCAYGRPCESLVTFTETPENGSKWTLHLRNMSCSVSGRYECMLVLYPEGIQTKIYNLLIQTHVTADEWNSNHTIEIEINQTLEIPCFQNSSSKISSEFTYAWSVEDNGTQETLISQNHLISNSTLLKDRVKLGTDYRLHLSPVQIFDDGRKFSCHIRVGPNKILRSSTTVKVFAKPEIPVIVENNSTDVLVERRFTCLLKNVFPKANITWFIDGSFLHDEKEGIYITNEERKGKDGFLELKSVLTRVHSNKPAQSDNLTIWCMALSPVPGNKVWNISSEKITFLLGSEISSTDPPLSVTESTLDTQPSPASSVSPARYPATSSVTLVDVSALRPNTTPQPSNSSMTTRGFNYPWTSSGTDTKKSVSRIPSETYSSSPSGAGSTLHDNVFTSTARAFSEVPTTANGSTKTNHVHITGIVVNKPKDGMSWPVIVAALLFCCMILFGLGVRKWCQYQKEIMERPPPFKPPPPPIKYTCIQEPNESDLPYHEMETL
In words: FACS.

Assay [3] addresses T3, hu-CD226 on Expi293 cells (human) (UniProt Q15762).
T3 sequence: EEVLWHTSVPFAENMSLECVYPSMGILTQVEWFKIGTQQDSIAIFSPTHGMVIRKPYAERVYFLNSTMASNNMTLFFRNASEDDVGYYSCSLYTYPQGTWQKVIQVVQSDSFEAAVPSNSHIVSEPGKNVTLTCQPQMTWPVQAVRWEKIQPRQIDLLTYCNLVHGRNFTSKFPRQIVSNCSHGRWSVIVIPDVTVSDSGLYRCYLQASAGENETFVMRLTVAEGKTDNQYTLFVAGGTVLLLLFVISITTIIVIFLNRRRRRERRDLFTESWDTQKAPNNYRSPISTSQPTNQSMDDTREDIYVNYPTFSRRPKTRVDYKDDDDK
In words: flow cytometry on huCD226-transfected Expi293 cells, PE-labelled secondary antibody, fold change in huCD226 binding.

In assay [4] the target is T4, hu-CD96 (soluble, isoform 2 extracellular domain) (human) (UniProt P40200).
T4 sequence (chain, biotinylated in Octet and blocking ELISA): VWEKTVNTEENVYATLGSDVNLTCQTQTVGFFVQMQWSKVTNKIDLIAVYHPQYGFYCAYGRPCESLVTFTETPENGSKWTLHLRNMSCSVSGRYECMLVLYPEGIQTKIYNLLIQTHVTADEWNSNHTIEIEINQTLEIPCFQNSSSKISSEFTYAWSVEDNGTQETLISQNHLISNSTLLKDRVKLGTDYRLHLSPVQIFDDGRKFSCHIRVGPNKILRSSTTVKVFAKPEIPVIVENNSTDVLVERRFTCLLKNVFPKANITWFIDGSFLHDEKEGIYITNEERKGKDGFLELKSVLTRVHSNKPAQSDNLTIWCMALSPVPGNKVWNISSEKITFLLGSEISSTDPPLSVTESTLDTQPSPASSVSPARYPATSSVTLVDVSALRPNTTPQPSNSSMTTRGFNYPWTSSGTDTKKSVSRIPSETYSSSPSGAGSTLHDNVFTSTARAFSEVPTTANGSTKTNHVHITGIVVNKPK
As to the kind of experiment: BLI (Octet).

Assay [5] has as its target T5, cy-CD96 (soluble, extracellular domain) (cynomolgus monkey).
T5 sequence (chain, biotinylated in Octet and blocking ELISA): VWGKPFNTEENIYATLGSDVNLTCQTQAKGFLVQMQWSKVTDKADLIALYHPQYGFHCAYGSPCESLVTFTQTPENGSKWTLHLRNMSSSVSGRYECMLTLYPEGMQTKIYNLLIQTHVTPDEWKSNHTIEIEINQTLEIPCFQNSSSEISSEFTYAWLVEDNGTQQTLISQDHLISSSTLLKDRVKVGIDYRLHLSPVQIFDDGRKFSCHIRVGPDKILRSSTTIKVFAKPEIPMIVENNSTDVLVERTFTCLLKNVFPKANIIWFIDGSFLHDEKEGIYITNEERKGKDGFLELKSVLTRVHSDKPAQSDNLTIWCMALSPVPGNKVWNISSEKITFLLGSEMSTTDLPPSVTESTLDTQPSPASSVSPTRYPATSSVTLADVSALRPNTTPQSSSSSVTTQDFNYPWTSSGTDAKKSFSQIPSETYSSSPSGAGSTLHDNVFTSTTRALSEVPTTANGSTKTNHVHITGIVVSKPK
As to the kind of experiment: BLI (Octet).

The source of these data is patent publication US12365732.

Substitutions are numbered along the chain they refer to. Results are given in words; binding and its absence hold for the method and conditions named. Some results given as binding are weak or reduced against the parent protein; the word gives no strength.

B1: 10G1 (clone 10G1.3G8), purified hybridoma antibody (antibody, V domains shown)
VH: QIQLVQSGPELKKPGETVKISCKASGYPFTTYGMSWVKQAPGKGLKWMGWINTDSGVPTYADDFKGRFAFSLETSANTAYLQINSLKNEDAATYFCARNIYYGWGNFDYWGQGTILTVSS
VL: DILMTQSPTTLSVTPGETVSLSCRASQDIYRNLHWYQQKSQGTPRLLIKHASDSISGIPSRFTGSGSGTDFTLSINSVKPEDEGIYYCLQGYSMPYTFGGGTKLEIK
For B1, the binding result in assay [1], in assay [2] and in assay [3] was “binds” each time.

B2: mAb1.v7.NGS8 Fab (Fab, V domains shown)
VH: EVQLVQSGAEVKKPGASVKVSCKASGFTFTNNFMHWVRQAPGQGLEWIGMIHANSGITNINEKFKNRVTMTTDTSTSTAYMELRSLRSEDTAVYYCRSDGIYEGYFDYWGQGTLVTVSS
VL: DIQLTQSPSSLSASVGDRVTITCKASQNVGTAIVWYQQKPGKAPKVLIYSASTRYTGVPSRFSGSGSGTDFTLTISSLQPEDFATYYCQQYSSSPLTFGQGTKVEIK
For B2, in assay [4], the binding entry was “binds”.

B3: mAb1.v7.NGS9 Fab (Fab, V domains shown)
VH: B2 VH with I101V
VL: B2 VL
With B3, the binding entry in assay [5] and in assay [4] was “binds” throughout.
